Assay results reported in doi:10.1101/2023.01.18.524603.
These are yes or no findings as the source states them, for the method shown. Some entries that bind do so weakly or less than the wild type. For part of these data: Where a sequence is shown, tags or fusion partners need not be part of it.

T1: Rec114C (residues 375–428 of yeast Rec114) (Saccharomyces cerevisiae) (UniProt P32841)
T1 sequence: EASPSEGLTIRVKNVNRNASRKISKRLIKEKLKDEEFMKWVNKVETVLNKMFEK

T2: Rec114_(388–428) (Saccharomyces cerevisiae) (UniProt P32841)
T2 sequence: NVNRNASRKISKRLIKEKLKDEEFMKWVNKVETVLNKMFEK

T3: mREC114C (mouse REC114 residues 203–259) (mouse) (UniProt Q9CWH4)
T3 sequence: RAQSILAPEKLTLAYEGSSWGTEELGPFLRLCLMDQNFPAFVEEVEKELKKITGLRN

T4: Rec114_(325–428) (Saccharomyces cerevisiae) (UniProt P32841)
T4 sequence: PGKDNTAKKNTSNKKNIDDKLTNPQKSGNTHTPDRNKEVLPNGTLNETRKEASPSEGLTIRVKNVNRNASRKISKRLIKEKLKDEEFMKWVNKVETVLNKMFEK

T5: Rec114_(388–428) K399A/R400A (Saccharomyces cerevisiae) (UniProt P32841)
T5 sequence: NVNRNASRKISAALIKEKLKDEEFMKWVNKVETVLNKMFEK

T6: Rec114_(388–428) K403A/K407A (Saccharomyces cerevisiae) (UniProt P32841)
T6 sequence: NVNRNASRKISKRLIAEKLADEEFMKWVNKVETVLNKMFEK

T7: Rec114_(388–428) K417A/K424A (Saccharomyces cerevisiae) (UniProt P32841)
T7 sequence: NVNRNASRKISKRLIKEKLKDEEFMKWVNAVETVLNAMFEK

T8: Rec114_(388–428) R395A/K396A (Saccharomyces cerevisiae) (UniProt P32841)
T8 sequence: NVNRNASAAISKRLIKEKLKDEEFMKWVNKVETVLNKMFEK


Key:
[1] = molecular target: T1, Rec114C (residues 375–428 of yeast Rec114) (Saccharomyces cerevisiae); assay: NMR (HSQC spectra, backbone assignment) of the purified complex; 15N or 15N-13C labelled co-purified complex; 25 mM HEPES-NaOH pH 7.4, 100 mM NaCl, 0.5 mM EDTA, 1 mM TCEP, 25 °C; Rec114(388–428)–Mei4(13–43) assigned in 25 mM NaHPO4 pH 6.1, 100 mM NaCl; both purified
[2] = molecular target: T2, Rec114_(388–428) (Saccharomyces cerevisiae); assay: as above
[3] = molecular target: T2, Rec114_(388–428) (Saccharomyces cerevisiae); assay: co-purification after co-expression (cobalt affinity, SEC); co-expressed in E. coli BL21(DE3) from a pETDuet-based vector with a 6XHis-SUMO tag; cobalt resin in 25 mM HEPES-NaOH pH 7.4, 500 mM NaCl; tag cleaved with Ulp1; Superdex 200 Increase in 25 mM HEPES-NaOH pH 7.4, 100 mM NaCl; fractions checked by SDS-PAGE
[4] = molecular target: T3, mREC114C (mouse REC114 residues 203–259) (mouse); assay: as above
[5] = molecular target: T4, Rec114_(325–428) (Saccharomyces cerevisiae); assay: as above
[6] = molecular target: T1, Rec114C (residues 375–428 of yeast Rec114) (Saccharomyces cerevisiae); assay: as above
[7] = molecular target: T5, Rec114_(388–428) K399A/R400A (Saccharomyces cerevisiae); assay: as above
[8] = molecular target: T6, Rec114_(388–428) K403A/K407A (Saccharomyces cerevisiae); assay: as above
[9] = molecular target: T7, Rec114_(388–428) K417A/K424A (Saccharomyces cerevisiae); assay: as above
[10] = molecular target: T8, Rec114_(388–428) R395A/K396A (Saccharomyces cerevisiae); assay: as above

Binder | binding [1] | binding [2] | binding [3] | further results
MDIQPWYLKTSKLALALAIIHSKPADRSSREYTEYLASLVTQ (domain or fragment, UniProt Q8BRM6 1-42) [mMEI4N (mouse MEI4 residues 1–42)] | – | – | – | binding [4]: binds
Mei4_(1–90) (domain or fragment, UniProt P29467 1-90) MSRGKLEDMEQKETSEVDWIICFALIQSRNPTLWKRALSRKKGDVEDVGALKSEKNLKINPRENSKHIYKWVAPFENGFLNNKSLFAHLE | – | – | – | binding [5]: binds
MSRGKLEDMEQKETSEVDWIICFALIQSRNPTLWKRALSRKKG (domain or fragment, UniProt P29467 1-43) [Mei4N (residues 1–43 of yeast Mei4)] | binds | binds | binds | binding [6]: binds; binding [7]: binds; binding [8]: binds; binding [9]: binds; binding [10]: binds
MSRGKLEDMEQKETSEVDWIICFALIQSRNPTLWKRALSRKKG (domain or fragment, UniProt P29467 1-43) [Mei4N with a C-terminal ybbR tag (without the fluorophore)] | binds | – | – | –

Now from value to binder, other results behind:

binding [1] | binding [2] | binding [3] | Binder | further results
binds | binds | binds | ETSEVDWIICFALIQSRNPTLWKRALSRKKG (domain or fragment, UniProt P29467 13-43) [Mei4_(13–43)] | –
binds | – | – | Rec114C (residues 375–428 of yeast Rec114) (domain or fragment, UniProt P32841 375-428) EASPSEGLTIRVKNVNRNASRKISKRLIKEKLKDEEFMKWVNKVETVLNKMFEK | –
